According to patent US20210299170A1, “METHOD FOR IMPROVING ANTICANCER AGENT EFFICACY” (DA VOLTERRA, priority 2018, published 2021):
At least one compound was matched to its structure with a doubt left.

System: Hepa 1-6 cells
Assay: Hepa 1-6 tumour model in mice: anti-PD1 with clindamycin and adsorbent (Example 16)
Assay type: in vivo
Conditions: groups A, B, C compared with control group D; day 29

For CCC[C@@H]1C[C@@H](C(=O)N[C@@H]([C@H]2O[C@H](SC)[C@H](O)[C@@H](O)[C@H]2O)[C@H](C)Cl)N(C)C1 [clindamycin], the “effect on tumor growth / anti-PD1 efficacy (in words)” value was “loss of efficacy of the anti-PD1”.
